Test results from the supplement of paper PMC12889115.
The other results are listed elsewhere or left out. These are raw signals, not scaled to a control.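 In the initial screen, polymyxin B was used at a concentration that permeabilizes Salmonella's outer membrane but not its inner membrane. Maximum growth was set by DMSO wells with or without polymyxin B. Since plates varied, data were ranked per plate, and compounds giving the lowest OD600 advanced as hits.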

Tested on: Salmonella enterica serovar Typhimurium SL1344
Assay: bacterial growth OD600 after 18 h with compound and polymyxin B; higher = more bacterial growth (less inhibition)
Conditions: 50 µM, Mueller-Hinton broth

Row | Compound | bacterial growth OD600 (polymyxin B 1 µg/mL) | bacterial growth OD600 (polymyxin B 0.75 µg/mL)
1 | O=C(Cc1ccccc1)Nc1ccnn1C1CCN(C(=O)c2cscn2)CC1 | 0.939 | 
2 | COc1ccc(C(=O)N2CCCC(Nc3ccc(F)cc3)C2)c(OC)c1 (centres undefined) | 0.861 | 
3 | COc1ccc(/C=C/C(=O)N2CCCC(CO)(Cc3ccc(F)cc3F)C2)cc1 (centres undefined) | 0.597 | 
4 | Cc1cnc(C)c(N2CCN(C(=O)CC3(c4cccc(F)c4)CC(=O)N(C4CCCC4)C3=O)CC2)n1 (centres undefined) |  | 0.742
5 | CCN1CCN(CC2(O)CCCN(CC3CCCCC3)C2=O)CC1 (centres undefined) | 0.905 | 
6 | CCOC(=O)C1(Cc2ccc(F)cc2F)CCCN(C(=O)CC)C1 (centres undefined) | 0.834 | 
7 | O=C(NCCN1Cc2ccccc2OC(c2ccsc2)C1)[C@@H]1C[C@H]1c1ccccc1 (some centres undefined) |  | 0.02
8 | O=C(CCOc1ccccc1)Nc1ccnn1C1CCN(Cc2nccs2)CC1 | 0.93 | 
9 | COc1ccc(CNC2CCN(c3ccc(C(=O)N4CCCC(CO)C4)cc3)CC2)cc1OC (centres undefined) |  | 0.83
10 | C=CCC(=O)N1CCCCC1C(=O)Nc1cccc(-c2nnc(C)s2)c1 (centres undefined) | 0.898 | 
11 | CCOC(=O)C1(Cc2ccccc2C)CCCN(C(=O)Cn2nc(C)cc2C)C1 (centres undefined) | 0.561 | 
12 | CCOc1ccc2nc(CN3CCC(n4nccc4NC(C)=O)CC3)ccc2c1 |  | 0.713
13 | Cc1nc(CN2CC[C@@H](N3CCN(c4ccccc4F)CC3)[C@H](O)C2)c2ccccn12 | 0.953 | 
14 | CC(=O)c1ccc(OCC(=O)N2CCCC(c3nc(-c4ccncc4)ncc3-c3ccccc3)C2)cc1 (centres undefined) |  | 0.796
15 | O=C(c1ccc(N2CCC(NCc3cnc4ccccn34)CC2)cc1)N1CCc2ccccc2C1 |  | 0.765
16 | C=CC[C@@H]1CC=C[C@@H](C)N1C(=O)c1cc(Cn2nc(C)cc2C)[nH]n1 |  | 0.765
17 | CC(C)CCNc1ccc(C(=O)N2CCC(CN3CCCC3=O)CC2)cn1 |  | 0.803
18 | COc1ccc(OC)c(CN2CCC(c3nc(-c4ccncc4)ncc3-c3cccc(C)c3)CC2)c1 |  | 0.841
19 | CCCC1(C2CCN(C(=O)CCc3cccs3)CC2)NC(=O)N(CCc2ccccn2)C1=O (centres undefined) |  | 0.83
20 | COc1ccc2c(C)nc(N3CCCC(C(=O)N4CCC[C@H]4CO)C3)nc2c1 (some centres undefined) |  | 0.962
21 | COc1ccc(C2c3[nH]c4ccccc4c3CCN2Cc2nc(C)c[nH]2)cc1C (centres undefined) |  | 0.29
22 | CC(C)n1cc(C(=O)NCc2ccccc2)c(=O)c(C(=O)N2CCN(C/C=C/c3ccccc3)CC2)c1 |  | 0.763
23 | CCCCC1CN(CCNC(=O)C2CC=CCC2)Cc2ccccc2O1 (centres undefined) |  | 0.758
24 | CC(=O)NCC(=O)N(CC1CCN(Cc2ccccc2C)CC1)CC1CCCO1 (centres undefined) | 1.13 | 
25 | CCN(C)Cc1cnc(S(=O)(=O)CC)n1CCc1ccccc1 | 1.18 | 
26 | Cc1cccc(CN2CCC(C(=O)Nc3ccc(Oc4cccnc4)cc3)CC2)c1 | 0.604 | 
27 | CCC(O)C1CCN(Cc2cnc(S(=O)(=O)C(C)C)n2CCc2ccccc2)CC1 (centres undefined) | 0.024 | 
28 | c1ccc(CCC2CCCCN2Cc2nc(-c3cnccn3)no2)nc1 (centres undefined) | 1 | 
29 | CC1CN(CCC(=O)N2CCC(C(C)N3CCOCC3)CC2)Cc2cc(Cl)ccc2O1 (centres undefined) |  | 0.734

Three entries from above, ordered by length of the SMILES, high to low.
Row | Compound | bacterial growth OD600 (polymyxin B 1 µg/mL) | bacterial growth OD600 (polymyxin B 0.75 µg/mL)
18 | COc1ccc(OC)c(CN2CCC(c3nc(-c4ccncc4)ncc3-c3cccc(C)c3)CC2)c1 |  | 0.841
7 | O=C(NCCN1Cc2ccccc2OC(c2ccsc2)C1)[C@@H]1C[C@H]1c1ccccc1 (some centres undefined) |  | 0.02
5 | CCN1CCN(CC2(O)CCCN(CC3CCCCC3)C2=O)CC1 (centres undefined) | 0.905 | 
